Measured values as given in article PMC10620080, “The sex-specific factor SOA controls dosage compensation in Anopheles mosquitoes”.
For some assays here: A negative result means that nothing was seen under these conditions. At least one verdict was read from the data and is not stated in words by the source. Tags and fusion partners may be left off the protein sequences shown. For some assays here: For at least one entry, the source does not settle the construct or the ends of the probe.

Assays:
[1] = biological target: T1, MBP-SOA(1195-1265), ZnF domain (Anopheles gambiae) (UniProt Q7Q6N8); assay: fluorescence polarization; conditions: FP: 10 mM Na-HEPES pH 7.4, 150 mM NaCl, 1 mM TCEP, 0.1 g/l BSA, 5% glycerol, 0.05% Triton X-100, 5 nM DNA, 20 C; recombinant protein; residues 1195-1265; protein details: N-terminal His6-MBP; label: Cy5 on one strand
T1 sequence (looked up): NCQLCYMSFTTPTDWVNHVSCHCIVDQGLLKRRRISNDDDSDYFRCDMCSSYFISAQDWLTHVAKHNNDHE

[2] = biological target: T2, MBP-SOA(1-331), myb+BTB (Anopheles gambiae) (UniProt Q7Q6N8); assay: fluorescence polarization; conditions: FP: 10 mM Na-HEPES pH 7.4, 150 mM NaCl, 1 mM TCEP, 0.1 g/l BSA, 5% glycerol, 0.05% Triton X-100, 5 nM DNA, 20 C; recombinant protein; residues 1-331; protein details: N-terminal His6-MBP; label: Cy5 on one strand
T2 sequence (looked up): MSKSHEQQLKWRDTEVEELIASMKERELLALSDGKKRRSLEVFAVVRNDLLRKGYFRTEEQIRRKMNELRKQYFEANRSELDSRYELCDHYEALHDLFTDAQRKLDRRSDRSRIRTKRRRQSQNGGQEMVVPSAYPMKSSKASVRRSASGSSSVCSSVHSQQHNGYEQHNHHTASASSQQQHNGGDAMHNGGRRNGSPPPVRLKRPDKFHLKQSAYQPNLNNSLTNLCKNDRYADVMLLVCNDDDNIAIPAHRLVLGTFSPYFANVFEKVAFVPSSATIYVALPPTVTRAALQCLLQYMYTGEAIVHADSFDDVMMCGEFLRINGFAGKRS

| Sequence | binding result [1] | binding result [2] |
| --- | --- | --- |
| GTCTCGTAATCTTCTTAGAG (double strand) [random 1 dsDNA 20mer] | no binding | binds |
| CACACACACACACACACACA (double strand) [CA10 dsDNA 20mer] | no binding |  |
| GTCCACACACACACACACGA (double strand) [CA7 dsDNA 20mer] | no binding | binds |
